From PubChem BioAssay AID1347075 (National Center for Advancing Translational Sciences (NCATS), 2019)
In all, about 400,000 compounds went through this assay and about 5,500 (1.4%) were called active. This list was built around the results that the source calls inconclusive (neither active nor inactive); the mix of calls is not that of the screen. Calls follow the shape of the dose curve; as a rule, active = well fitted cell-killing curve with a large enough effect; inconclusive = small, poorly fitted or top-dose-only effect, or effect the other way; inactive = flat fitted curve, though single readings scatter. A potency beside an inconclusive call is a rough fit, not a confirmed value.

experiment: qHTS assay for MDR1-selective chemotherapeutics: Primary screen using the parental adenocarcinoma cell KB-3-1; conditions: KB-3-1 viability, CellTiter-Glo ATP luminescence, 72 h; activity change, negative = cytotoxic: at 46.1 µM (top of the series); also: nearly all actives have a fitted effect of over 60% in size
Method in brief: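 KB-3-1 parental drug-naive adenocarcinoma cells in DMEM/10% FBS, incubated 72 h at 37 C with pin-transferred compounds across a concentration series. Viability by CellTiter-Glo luminescence; concentration-response curves fitted after normalization.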
% is scaled to controls: 0 for no effect and ±100 for the full control effect; potency is read from the fitted curve at half-maximal effect.

For `COc1cc(NC(=O)CSCc2ccc(Cl)cc2)c(C(=O)O)cc1OC`, which Potency is on record?
The Potency was “inactive”.

Which Potency does the source give for `Cc1ccc(NC(=O)/C=C/c2cccc([N+](=O)[O-])c2)nc1` here?
Its Potency is inconclusive: 23.1 µM [rising, single point].

Which Potency does the source give for `O=C(COC(=O)c1cc(S(=O)(=O)N2CCCC2)ccc1O)Nc1ccc(SC(F)F)cc1` here?
Its Potency is “inactive”.

With `CCOC(=O)[C@]12CCC=C1N(CCC1=CCCCC1)C(=O)[C@H](CC(=O)NCc1cccc(C(F)(F)F)c1)C2` as the compound, how does the Potency read?
The Potency was “inactive”.

Which Potency does the source give for `Cc1[nH]c2ccccc2c1/C=N/NC(=O)c1cc(-c2ccncc2)nc2ccccc12` here?
Its Potency is inconclusive: 29.1 µM [cytotoxic, single point].

Which Potency does the source give for `CCOc1ccc(C(=O)NC(=S)Nc2cccc(NC(=O)c3ccco3)c2)cc1[N+](=O)[O-]` here?
The Potency was active: 18.4 µM.

With `O=C(CCCc1nc(-c2ccc(Cl)cc2)no1)N1CCOCC1` as the compound, how does the Potency read?
Its Potency is inconclusive: 18.4 µM [cytotoxic, single point].

Which Potency does the source give for `CC(=O)Nc1ccc(C2C(=O)c3ccccc3C2=O)cc1` here?
Its Potency is inconclusive: 8.2 µM [cytotoxic, partial curve].

For `COc1cc(C2c3cc4c(cc3OC(NCc3ccccc3)C2C)OCO4)cc(OC)c1OC` (stereo not given), which Potency is on record?
The Potency was active: 0.58 µM.

For `CCOC(=O)c1c(NC(=O)CSc2nc(C)cc(C)c2C#N)sc(C(C)=O)c1C`, which Potency is on record?
The Potency was inconclusive: 29.1 µM [cytotoxic, single point].

With `COc1ccc(C2C(C#N)=C(N)Oc3cc(N)ccc32)cc1OC` (stereo not given) as the compound, how does the Potency read?
The Potency was active: 16.4 µM.

For `COC(=O)c1cc(S(=O)(=O)NCC2CCN(CCc3cccs3)CC2)c[nH]1`, which Potency is on record?
Its Potency is “inactive”.

For `COc1cccc(-c2cnc3c(NC=O)cc(-c4ccccc4Oc4ccccc4)cn23)c1`, which Potency is on record?
Its Potency is inconclusive: 29.1 µM [cytotoxic, single point].

Which Potency does the source give for `Cn1c(=O)c2c(ncn2Cc2cc(-c3ccccc3)no2)n(C)c1=O` here?
The Potency was “inactive”.

With `COc1ncnc2c1ncn2CCCNCc1ccccc1` as the compound, how does the Potency read?
The Potency was “inactive”.

For `Cc1ccccc1-n1c([C@@H]2C[C@H]2c2ccccc2)n[nH]c1=S`, which Potency is on record?
Its Potency is “inactive”.

With `O=C(NCc1ccc(Cl)c(Cl)c1)c1cc(C2CCCCN2C(=O)c2ccccc2)on1` (stereo not given) as the compound, how does the Potency read?
Its Potency is inconclusive: 29.1 µM [cytotoxic, single point].

Which Potency does the source give for `COc1ccc(S(=O)(=O)Nc2ccc(-c3ccc(N4CCCC4)nn3)cc2)cc1F` here?
The Potency was inconclusive: 20.6 µM [rising, partial curve, poor fit].

With `CC(C)(C)OC(=O)C[C@H]1C/C=C\C[C@H](CC(=O)N(CCO)Cc2ccccc2)C(=O)N[C@@H](Cc2ccccc2)COC1=O` as the compound, how does the Potency read?
The Potency was inconclusive: 0.0461 µM [cytotoxic, full curve].

Which Potency does the source give for `Cc1cccc(C)c1NC(=O)C(c1ccccc1)n1c(=O)c(-c2ccco2)nc2ccccc21` (stereo not given) here?
Its Potency is “inactive”.

With `NC(=O)CC(NC(=O)Cc1ccc(Br)cc1)c1ccc(NC2CCCC2)c([N+](=O)[O-])c1` (stereo not given) as the compound, how does the Potency read?
Its Potency is inconclusive: 32.6 µM [cytotoxic, single point].

Which Potency does the source give for `COc1ccc(S(=O)(=O)NCc2ccccn2)cc1NC(=O)c1ccccc1C` here?
Its Potency is active: 14.6 µM.

For `COc1cc(CNc2ccc(N3CCCCC3)cc2)ccc1OCC(=O)NC(C)(C)C`, which Potency is on record?
Its Potency is inconclusive: 14.6 µM [cytotoxic, single point].

For `COc1ccc(-n2c(-c3ccc(Br)cc3)c[n+]3c2CCC3)cc1`, which Potency is on record?
Its Potency is active: 4.11 µM.

With `c1ccc(CCNc2nc(-c3ccncc3)nc3ccccc23)cc1` as the compound, how does the Potency read?
The Potency was inconclusive: 29.1 µM [cytotoxic, single point].

For `Cc1ccc2c(/C=C/c3ccc(N(C)C)cc3)ccnc2c1C`, which Potency is on record?
Its Potency is “inactive”.

With `CC(=O)N1CCN(C(=O)c2ccc(Cl)c(S(=O)(=O)N3CCc4ccccc43)c2)CC1` as the compound, how does the Potency read?
Its Potency is “inactive”.

For `COCCCN1C(=O)C(CC(=O)NCCCN(C)C)CC(C(=O)N2CCCCCC2)=C1C` (stereo not given), which Potency is on record?
Its Potency is “inactive”.

Which Potency does the source give for `Cc1ccc(NC(=O)C(=Cc2ccc(C(=O)O)cc2)C(=O)Nc2ccc(C)cc2C)c(C)c1` here?
Its Potency is inconclusive: 20.6 µM [cytotoxic, single point].

For `COc1ccccc1CNC(=O)c1c(O)nc2c(C)cccn2c1=O`, which Potency is on record?
Its Potency is “inactive”.

With `COc1ccc2c(c1)cc1c(=O)n(CC(=O)NC(C)C)nc(C)n12` as the compound, how does the Potency read?
Its Potency is “inactive”.

With `CCCOc1ccc(N2C(=O)CC(SC(=N)N3N=C(c4ccccc4)CC3c3ccccc3)C2=O)cc1` (stereo not given) as the compound, how does the Potency read?
Its Potency is inconclusive: 25.9 µM [cytotoxic, single point].

For `COc1ccc(CNC(=O)c2cccc(S(=O)(=O)N3CCCCC3)c2)cc1OC`, which Potency is on record?
Its Potency is inconclusive: 20.6 µM [cytotoxic, partial curve].

With `CCc1ccc(NC(=O)C2CCCN2S(=O)(=O)c2ccc3c(c2)n(C)c(=O)c(=O)n3C)cc1` (stereo not given) as the compound, how does the Potency read?
Its Potency is inconclusive: 23.1 µM [rising, single point].

With `CN1/C(=C\C=C(C#N)C#N)C(C)(C)c2ccccc21` as the compound, how does the Potency read?
The Potency was “inactive”.

With `Cc1cc(Cl)ccc1OC(C)C(=O)Nc1ccc(S(=O)(=O)N2CCOCC2)cc1` (stereo not given) as the compound, how does the Potency read?
The Potency was inconclusive: 29.1 µM [cytotoxic, single point].

With `Nc1sc2c(c1C(=O)NC1CCS(=O)(=O)C1)CCCC2` (stereo not given) as the compound, how does the Potency read?
The Potency was inconclusive: 23.1 µM [rising, single point].

Which Potency does the source give for `c1ccc(-c2nc(NCc3cccs3)c3ccccc3n2)cc1` here?
Its Potency is “inactive”.

For `CCOc1cccc2sc(N(CCCN(C)C)C(=O)c3ccc(S(=O)(=O)N(C)c4ccccc4)cc3)nc12`, which Potency is on record?
The Potency was inconclusive: 23.1 µM [cytotoxic, partial curve, poor fit].

With `Cc1ccc(Nc2sc(C(=O)c3ccccc3)c(N)c2C(=O)Nc2ccc(Cl)cc2)cc1` as the compound, how does the Potency read?
The Potency was inconclusive: 23.1 µM [cytotoxic, single point].

With `N#Cc1ccc(CN2CCN(C(=O)c3ccc(S(=O)(=O)NCc4ccco4)cc3)CC2)cc1` as the compound, how does the Potency read?
Its Potency is inconclusive: 11.6 µM [cytotoxic, partial curve, poor fit].

With `O=C1S/C(=C/c2ccccc2F)C(=O)N1CCN=C1NS(=O)(=O)c2ccccc21` as the compound, how does the Potency read?
The Potency was “inactive”.

For `O=C(OCc1nnc(-c2ccc(Br)cc2)o1)c1cncc(Br)c1`, which Potency is on record?
Its Potency is “inactive”.

Which Potency does the source give for `C[C@@H]1CN([C@@H](C)CO)C(=O)c2cc(NS(=O)(=O)c3cccs3)ccc2O[C@H]1CN(C)Cc1ccc(C(F)(F)F)cc1` here?
The Potency was inconclusive: 20.6 µM [cytotoxic, single point].

For `Cc1cc(NC(=O)c2cc(-c3ccncc3)nc3ccccc23)ccc1Br`, which Potency is on record?
The Potency was inconclusive: 29.1 µM [cytotoxic, single point].

With `CNc1cc(N2CCCC2)ccc1[N+](=O)[O-]` as the compound, how does the Potency read?
Its Potency is “inactive”.

With `Cc1ccsc1C(=O)OCC(=O)Nc1sccc1C(N)=O` as the compound, how does the Potency read?
Its Potency is “inactive”.

Which Potency does the source give for `O=C(c1ccc(Cl)cc1)C(CN1CCCCC1)c1ccccc1` (stereo not given) here?
The Potency was active: 23.1 µM.

For `COC(=O)C1(C(=O)OC)C[C@H](c2ccc(OC)cc2)N(Cc2ccccc2OC)[C@@H]1c1ccccc1`, which Potency is on record?
Its Potency is inconclusive: 29.1 µM [cytotoxic, single point].

Which Potency does the source give for `COc1ccc(-c2nnnn2-c2ccccc2OC)cc1` here?
The Potency was inconclusive: 18.4 µM [cytotoxic, single point].

Which Potency does the source give for `c1ccc(-c2ccc(C3=Nn4c(nnc4-c4cc(-c5ccccc5)n[nH]4)SC3)cc2)cc1` here?
Its Potency is inconclusive: 23.1 µM [cytotoxic, single point].

With `CS(=O)(=O)c1ccccc1C(=O)N(CCC1=CCCCC1)c1c(N)n(Cc2ccccc2)c(=O)[nH]c1=O` as the compound, how does the Potency read?
The Potency was “inactive”.

Which activity change, negative = cytotoxic does the source give for `COc1ccc(NC(=O)N2CCCC2C(=O)Nc2ccc(C)c(Cl)c2)cc1` (stereo not given) here?
The activity change, negative = cytotoxic was inconclusive: 16.2%.

With `Clc1cccc(Nc2nc(-c3ccncc3)cs2)c1` as the compound, how does the Potency read?
Its Potency is inconclusive: 32.6 µM [cytotoxic, single point].

Which Potency does the source give for `COc1ccc(-c2cnc3ccccc3n2)cc1NC(=O)CNC(=O)c1ccccc1` here?
The Potency was inconclusive: 13 µM [rising, partial curve, poor fit].

For `CCCCCCCCN1C(=O)[C@H](CC(=O)NCc2ccccc2)C[C@@]2(C(=O)OC)CC(C)(C)CC=C12`, which Potency is on record?
The Potency was inconclusive: 18.4 µM [cytotoxic, single point].

With `COc1ccc(C(=O)c2c(C)c3ccccc3n2CC(O)CNC(C)C)cc1` (stereo not given) as the compound, how does the Potency read?
Its Potency is inconclusive: 20.6 µM [cytotoxic, single point].

For `Clc1ccc(Cn2c(-c3cccnc3Cl)nc3ccccc32)c(Cl)c1`, which Potency is on record?
The Potency was inconclusive: 29.1 µM [cytotoxic, single point].

With `CCc1ccc(OCCNc2cc(N3CCNC(C)C3)ccc2[N+](=O)[O-])cc1` (stereo not given) as the compound, how does the Potency read?
Its Potency is inconclusive: 18.4 µM [cytotoxic, single point].

For `COCOCCn1cc(CN2CCS(=O)(=O)N(Cc3ccc(-c4cccc(CO)c4)cc3)C(C)C2=O)nn1` (stereo not given), which Potency is on record?
Its Potency is “inactive”.

With `CN(C(=O)COC(=O)c1cccc(S(=O)(=O)N2CCCCC2)c1)C1CCS(=O)(=O)C1` (stereo not given) as the compound, how does the Potency read?
Its Potency is “inactive”.

Which Potency does the source give for `CCCCn1c(=O)[nH]c(=O)c2c1nc(-c1ccc([N+](=O)[O-])cc1)n2CC` here?
Its Potency is “inactive”.

With `Brc1ccccc1Cn1c(-c2cncs2)nc2ccccc21` as the compound, how does the Potency read?
Its Potency is inconclusive: 16.4 µM [cytotoxic, partial curve, poor fit].

Which Potency does the source give for `Cc1cc(C)c(S(=O)(=O)Nc2ccc(-c3cn4ccccc4n3)cc2)c(C)c1` here?
Its Potency is “inactive”.

With `Cc1ccc(OCCn2cc(C#N)c3ccccc32)cc1` as the compound, how does the Potency read?
Its Potency is inconclusive: 29.1 µM [cytotoxic, single point].

With `COc1cc(OC)cc(C2=Cc3ccc(OC)cc3C(CC(C)=O)N2c2ccc(C#CC3(O)CCCCC3)cc2)c1` (stereo not given) as the compound, how does the Potency read?
Its Potency is inconclusive: 18.4 µM [cytotoxic, single point].

With `CCCn1c(SCc2nc(-c3ccccc3OCC)no2)nnc1-c1ccc(Cl)cc1` as the compound, how does the Potency read?
Its Potency is “inactive”.

With `CC(=C1C(=O)c2ccccc2C1=O)N1CCC(C(N)=O)(N2CCCCC2)CC1` as the compound, how does the Potency read?
The Potency was “inactive”.

Which Potency does the source give for `COc1ccc2c(c1OC)C(=O)OC2Nc1nc(-c2ccccc2)cs1` (stereo not given) here?
Its Potency is active: 3.66 µM.

With `C(=C\CSc1ncn[nH]1)/CSc1ncn[nH]1` as the compound, how does the Potency read?
Its Potency is “inactive”.
